PubChem BioAssay AID1671190 (National Center for Advancing Translational Sciences (NCATS), 2021)
Among all 580,000 compounds or so, about 6,100 (1.1%) were called active. Inconclusive means that the source gave no clear call. Such entries were picked first, then a sample of the others. The call rests on the fitted dose curve; in most records, active means well fitted inhibition curve with a large enough effect; inconclusive means small, poorly fitted or top-dose-only effect, or another doubt; inactive means no such curve, though single readings can be large or run the other way. Where the call is inconclusive, the potency comes from a doubtful curve fit.

Chains of the proteins cited; added tags and fusions are not shown. Lines headed by an entry give the natural chain unless they say otherwise; changes in a name come on top.
UniProt P18054: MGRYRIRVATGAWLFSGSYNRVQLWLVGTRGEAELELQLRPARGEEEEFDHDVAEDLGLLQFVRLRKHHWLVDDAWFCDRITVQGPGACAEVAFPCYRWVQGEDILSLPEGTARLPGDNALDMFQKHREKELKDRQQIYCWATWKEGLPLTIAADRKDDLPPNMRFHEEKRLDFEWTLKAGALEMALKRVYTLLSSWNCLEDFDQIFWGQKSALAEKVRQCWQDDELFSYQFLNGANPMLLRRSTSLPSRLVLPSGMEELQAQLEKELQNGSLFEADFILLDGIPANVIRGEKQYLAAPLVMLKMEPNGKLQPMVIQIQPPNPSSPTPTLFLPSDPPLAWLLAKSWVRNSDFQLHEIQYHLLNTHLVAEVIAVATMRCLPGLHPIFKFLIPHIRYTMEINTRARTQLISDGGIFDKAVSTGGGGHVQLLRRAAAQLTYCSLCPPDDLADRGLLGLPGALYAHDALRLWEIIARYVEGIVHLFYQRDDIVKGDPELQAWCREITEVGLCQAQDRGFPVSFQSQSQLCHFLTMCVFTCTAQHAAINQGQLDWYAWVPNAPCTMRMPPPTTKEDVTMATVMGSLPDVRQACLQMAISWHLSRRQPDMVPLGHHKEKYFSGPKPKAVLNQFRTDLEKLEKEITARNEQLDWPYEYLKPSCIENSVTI

These compounds were tested against Polyunsaturated fatty acid lipoxygenase ALOX12 (Homo sapiens) (UniProt P18054) (assay: Primary qHTS assay for inhibitors of human arachidonate 12S-lipoxygenase (ALOX12): Round 2). Conditions: purified 12hLO, xylenol orange hydroperoxide absorbance; series mostly up to 108 µM.
Summary of the method: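 Hydroperoxide product was detected by ferrous iron/xylenol orange as the 573 to 405 nm absorbance ratio. Arachidonic acid at 40 uM (final) was turned over for 30 min at room temperature by 150 nM human 12hLO, pH 7.0 Hepes buffer, after 15 min compound preincubation.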
Potency means the concentration at half of the fitted maximal effect.

Row | SMILES | Potency
1 | Cc1cccc(N(Cc2cc(=O)[nH]c3ccccc23)C(=O)CCl)c1 | inconclusive: 35.5 µM [inhibitor, partial curve, poor fit]
2 | CCNc1c(NS(=O)(=O)c2ccc(Cl)s2)c(=O)oc2ccccc12 | inconclusive: 44.7 µM [inhibitor, single point]
3 | Nc1nonc1NC(=O)CSc1ncccc1C(=O)O | inconclusive: 0.891 µM [inhibitor, full curve, poor fit]
4 | Cc1onc(-c2c(Cl)cccc2Cl)c1C(=O)N1CCSCC1 | inconclusive: 1.78 µM [inhibitor, full curve, poor fit]
5 | OCCCNC(=S)Nc1ccc(Nc2ccccc2)cc1 | inconclusive: 44.7 µM [inhibitor, partial curve, poor fit]
6 | O=C1N[C@@H](Cc2c[nH]c3ccccc23)COC(=O)[C@H](Cc2ccc(F)cc2)C/C=C\C[C@H]1CC(=O)N(CCO)Cc1ccccc1 | inconclusive: 44.7 µM [inhibitor, partial curve, poor fit]
7 | Cc1cc(C([O-])=C(C(=S)Nc2ccc(F)cc2)[n+]2ccccc2)c(C)n1-c1ccc(F)cc1 | inconclusive: 50.1 µM [inhibitor, partial curve, poor fit]
8 | O=C(COc1cccc(Br)c1)Nc1ccc(NC(=O)C2CC2)cc1 | inconclusive: 70.8 µM [inhibitor, single point]
9 | Cc1ccc2c(CN3CCCCC3C)cc(=O)oc2c1C (configuration not stated) | inconclusive: 35.5 µM [inhibitor, partial curve, poor fit]
10 | COc1c[nH]n(C2CCCCC2)c(=O)c1=O | inconclusive: 0.891 µM [inhibitor, full curve, poor fit]
11 | O=C1c2ccccc2NC(c2cn[nH]c2-c2ccccc2)N1O (configuration not stated) | inactive
12 | Cc1cc2c(nc1C)CCCN2Cc1ccccn1 | inactive
13 | O=C(O)c1ccc(CNC(=O)C2CCN(S(=O)(=O)c3cccs3)CC2)cc1 | inconclusive: 31.6 µM [inhibitor, partial curve, poor fit]
14 | Cc1ccc2[nH]cc(CCN3CC(C(=O)NCCCOC(C)C)CC3=O)c2c1 (configuration not stated) | inactive
15 | CCOC(=O)c1cnc(-n2nc(C)cc2C)nc1Nc1ccc(OC)cc1 | inconclusive: 20 µM [inhibitor, partial curve, poor fit]
16 | O=S(=O)(NCC(c1ccccc1)N1CCc2ccccc21)c1ccc(Cl)cc1 (configuration not stated) | inconclusive: 126 µM [inhibitor, partial curve, poor fit]
17 | COc1ccccc1CN(Cc1ccccc1C)C(=O)[C@H]1CCC[C@H](O)C1 | inactive

Some of the entries so far, with each value named.
COc1c[nH]n(C2CCCCC2)c(=O)c1=O
  Potency: inconclusive: 0.891 µM [inhibitor, full curve, poor fit]
O=C1c2ccccc2NC(c2cn[nH]c2-c2ccccc2)N1O (configuration not stated)
  Potency: inactive
